# Reference: article PMC7819943, “Rice protein-binding microarrays: a tool to detect cis-acting elements near promoter regions in rice”
# The list shows a part of the results.
# Molecular target: T1, OsSMF1 (Oryza sativa, UniProt Q6ZLB0 1-436)
# T1 sequence: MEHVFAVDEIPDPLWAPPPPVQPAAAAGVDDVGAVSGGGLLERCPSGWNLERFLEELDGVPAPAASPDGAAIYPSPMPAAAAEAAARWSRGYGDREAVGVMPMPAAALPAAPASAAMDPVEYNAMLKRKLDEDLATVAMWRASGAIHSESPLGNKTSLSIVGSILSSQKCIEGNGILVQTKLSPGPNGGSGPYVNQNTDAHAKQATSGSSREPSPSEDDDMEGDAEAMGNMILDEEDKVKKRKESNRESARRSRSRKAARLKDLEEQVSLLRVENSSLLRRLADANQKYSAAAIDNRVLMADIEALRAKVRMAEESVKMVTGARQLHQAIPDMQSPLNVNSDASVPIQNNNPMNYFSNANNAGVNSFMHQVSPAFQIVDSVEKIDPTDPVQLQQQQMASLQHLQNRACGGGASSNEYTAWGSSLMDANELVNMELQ
# Experiment: protein-binding microarray (RPBM); PBS, 2% BSA, 51.3 ng/ul salmon testes DNA, 50 uM zinc acetate, 200 nM TF, 25 C, 1 h; high values mean tight binding
# Details: protein: recombinant; tags: N-terminal polyhistidine and DsRed monomer fusion (pET32a); chain copies: 2; label: CyDye5-dUTP incorporated in the synthesized complementary strand; 3' TTTTT single-stranded linker to array surface; dsDNA, one strand shown
# Procedure, shortened: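 Using Ni–NTA, transcription factors fused N-terminally to polyhistidine and DsRed were purified after expression in E. coli BL21-CodonPlus. These were incubated at 200 nM with a blocked, double-stranded custom Agilent array for 1 h at 25 °C in a buffer containing 50 µM zinc acetate, and the array was washed. The binding signal is per-feature fluorescence intensity (arbitrary units) on an Axon 4000B scanner.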
row,Sequence,binding signal
1,GCTTGCTCGCCGGCGGTGTGGGAATGATGACTCCCAGCCCCGGAGTCACCTAGTGCAG,4050 fluorescence intensity (a.u.)
2,TTTCGCAATTATATTGATGCAGAAATCAGCAGCTCACAATCGGAGTCACCTAGTGCAG,20700 fluorescence intensity (a.u.)
3,GAAGATAACGTGTTAGATTGTCTGCACTGTTACGTCAGCACGGAGTCACCTAGTGCAG,7440 fluorescence intensity (a.u.)
4,TCATAGTACTTGAGTCCATGACATCACCCTAGTCAACTCACGGAGTCACCTAGTGCAG,3440 fluorescence intensity (a.u.)
5,CGTGCATATAACATCTGCGTCGGTAGGCGTACGTGGAGACCGGAGTCACCTAGTGCAG,5050 fluorescence intensity (a.u.)
6,CCAGTAGAACATATATAGGGCCTACTGACCTTACTACTCCCGGAGTCACCTAGTGCAG,37100 fluorescence intensity (a.u.)
7,GATCAATTTGAGAACGAGAGAGAGTCGGCGTGGATCTCGACGGAGTCACCTAGTGCAG,3330 fluorescence intensity (a.u.)
8,CGTCAGGCCGAATTTGATGACGCGGACGATGATGGAAGCTCGGAGTCACCTAGTGCAG,12200 fluorescence intensity (a.u.)
9,TGTACTGAGAATGTGCATGCTGACCACTCATTTCTCATCCCGGAGTCACCTAGTGCAG,3330 fluorescence intensity (a.u.)
10,GGCACCAAATCACACAGAAAAGCTAGCCGACGTGGAGAGCCGGAGTCACCTAGTGCAG,7350 fluorescence intensity (a.u.)
11,TACTTAGCTAGCTAATCGCGTTGCTCTTTCTCGTACTATACGGAGTCACCTAGTGCAG,20400 fluorescence intensity (a.u.)
12,CAAAACACATCCATCATCCATTTATAAAATTACCACTCCCCGGAGTCACCTAGTGCAG,3340 fluorescence intensity (a.u.)
13,TGTTCTGTTCTTGTCCTTTGTGAGCACTAGTTTGAGCTGTCGGAGTCACCTAGTGCAG,3240 fluorescence intensity (a.u.)
14,GCATTGCATGACGAATGATGTGGAGACCAAAAGTAGTACTCGGAGTCACCTAGTGCAG,4280 fluorescence intensity (a.u.)
15,ACGCATGGATCCACGTGACGTCACGCCACGTCATCCACCACGGAGTCACCTAGTGCAG,60800 fluorescence intensity (a.u.)
16,GGTCCCACCTCTCATACACACATAATATATTGAAGTCCATCGGAGTCACCTAGTGCAG,3580 fluorescence intensity (a.u.)
17,TGGTTCTTATCCATTCCATCAGTTGACTGTCAATCTTTCACGGAGTCACCTAGTGCAG,3270 fluorescence intensity (a.u.)
18,GCGACTGCTTCCTGTTTGTCCGCAACAGCTCGCCTTCCTCCGGAGTCACCTAGTGCAG,3230 fluorescence intensity (a.u.)
19,GCTGAGCTGAGCTGATATGATCAACACAGTGCAGACTTGGCGGAGTCACCTAGTGCAG,3710 fluorescence intensity (a.u.)
20,CCTGCAATTCCACATCATGCTGTCATTTGGCATGTTCCATCGGAGTCACCTAGTGCAG,8850 fluorescence intensity (a.u.)
21,ACTGCGGGATAACTCATCTTACAGGAACACGTGGTTGAGACGGAGTCACCTAGTGCAG,4280 fluorescence intensity (a.u.)

# Taken from above:
# TGTACTGAGAATGTGCATGCTGACCACTCATTTCTCATCCCGGAGTCACCTAGTGCAG | binding signal: 3330 fluorescence intensity (a.u.)
# GCTTGCTCGCCGGCGGTGTGGGAATGATGACTCCCAGCCCCGGAGTCACCTAGTGCAG | binding signal: 4050 fluorescence intensity (a.u.)

# Exported with tabs: part of the list above
row	Sequence	binding signal
11	TACTTAGCTAGCTAATCGCGTTGCTCTTTCTCGTACTATACGGAGTCACCTAGTGCAG	20400 fluorescence intensity (a.u.)
12	CAAAACACATCCATCATCCATTTATAAAATTACCACTCCCCGGAGTCACCTAGTGCAG	3340 fluorescence intensity (a.u.)

# Following part.

row,Sequence,binding signal
1,CCAGAGAGGTGTTTTCATAGTCATCTCCGAATATTTGCCACGGAGTCACCTAGTGCAG,4650 fluorescence intensity (a.u.)
2,CATCGATGAGCTGCTTGACCGCCACCTCGCCAAGAAGTCCCGGAGTCACCTAGTGCAG,4030 fluorescence intensity (a.u.)
3,AAGCAAAGATTGTGAGCGCACTCTGACACAGCAGCATCTCCGGAGTCACCTAGTGCAG,6180 fluorescence intensity (a.u.)
4,CGAAGCGGTTCAGGAAGATGGAGCGGCACGTGGCTGCGACCGGAGTCACCTAGTGCAG,5240 fluorescence intensity (a.u.)
5,ACCAGCTACCACTAGTTGTGTAGTTACGTCCATAATAAAACGGAGTCACCTAGTGCAG,31800 fluorescence intensity (a.u.)
6,AGTTCCCAAGTCGCGCCTGTGATGATTGGTCCAAGTCATGCGGAGTCACCTAGTGCAG,3220 fluorescence intensity (a.u.)
7,CAGTAGGCAGCGGTAGCCGGCGATGACGCAACCATTAAGGCGGAGTCACCTAGTGCAG,4080 fluorescence intensity (a.u.)
8,GTTTAATATTTATAATTCGTGTCCCGATGTGACACGGCTTCGGAGTCACCTAGTGCAG,4640 fluorescence intensity (a.u.)
9,TAATAGTTTGCCATAAATGACTCAGAACTTAATTTAGGCCCGGAGTCACCTAGTGCAG,6210 fluorescence intensity (a.u.)
10,CACAACCAAAGCCCCAGTGACGTACGAGTACTCCTGATGTCGGAGTCACCTAGTGCAG,4430 fluorescence intensity (a.u.)
11,GCTAGACTCGACGTAAAGTTGAGGGACGTCATGTGAACTTCGGAGTCACCTAGTGCAG,3750 fluorescence intensity (a.u.)
12,CTCGCCCGGGATATATATATATGGCGGCGGGGCCGGCGGGCGGAGTCACCTAGTGCAG,17200 fluorescence intensity (a.u.)
13,GACCCACGCCTTCGGGTCCACATGTCATAGCCTATCCACCCGGAGTCACCTAGTGCAG,3550 fluorescence intensity (a.u.)
14,TAGTATGACAACTCAATCTCTTGTCTGTGACTAGCATATCCGGAGTCACCTAGTGCAG,4310 fluorescence intensity (a.u.)
15,GAACATATTTAAATATTGTAGCAGTTTATTTGTTAGCTAGCGGAGTCACCTAGTGCAG,26400 fluorescence intensity (a.u.)
16,AACTACAGGCGCTCCTAGAAACCGACAATTTTGACGTGTGCGGAGTCACCTAGTGCAG,5060 fluorescence intensity (a.u.)
17,GTCTTCACGTGTCCATGGTCTCAGCGTCAGCGACGAGACGCGGAGTCACCTAGTGCAG,3960 fluorescence intensity (a.u.)
18,TCATCTGCACGAGGGCGTGGTTGGTTCTTGCTTGTGTGAGCGGAGTCACCTAGTGCAG,3680 fluorescence intensity (a.u.)
19,CCCATTAACGAAAAGAGCCCACGGCCTCTTCTCTTCTTTCCGGAGTCACCTAGTGCAG,3140 fluorescence intensity (a.u.)
20,AGACAACACAAACAGTAAGTGTATCAGTGATTCAGAATGTCGGAGTCACCTAGTGCAG,3950 fluorescence intensity (a.u.)
21,GCCTACGACCCGCGCTCCGACCCTGACCCGCCCTGCCTCGCGGAGTCACCTAGTGCAG,3170 fluorescence intensity (a.u.)
